Earlier results on one molecule are cited in article PMC5700124 (Scientific Reports, 2017).

Where two headings read alike, the source gives them in different places.

This data set deals with α2 adrenoceptor. Particulars: cerebral cortex, pH 7.4, 25.0 °C, mg^2+ 0, blocking of NS phentolamine 10 μM, cited from earlier work.

`COC(=O)[C@@H]1[C@H]2C[C@H]3c4[nH]c5ccccc5c4CCN3C[C@@H]2CC[C@@H]1O` [[^3H]yohimbine]: the Bmax runs as follows: (ref Brown et al.[44]) 121 fmol/mg protein; (ref Brown et al.[45]) 121 fmol/mg protein.
